From ChEMBL document CHEMBL3988442, “University of Dundee, Small-Polar-MMV Screening Library” (2021).

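Phenotypic screen: M. tuberculosis growth, cholesterol and DPPC medium, 4 days; the read-out is not stated. Concentration: 50 µM. Higher reads as more growth inhibition (inferred: compounds with an IC50 in retests scored well above the rest). Size under these conditions: about 69,000 compounds, about 370 of them at 50% or above in at least one test.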

Results are given as percent effect.
The record does not define 0% and 100%; most values in the screen are far below 50% and negative numbers occur (in some assays of this library far below -100).
Compounds were drawn at random from those tested, without regard to their results.
Two or more numbers in one place are separate tests of the same structure; such repeats can differ widely.

Compound,percent effect
O=C(O)C(F)(F)F.O=C(O)C(F)(F)F.[H][C@@]12COC[C@]1(CNS(=O)(=O)CC)CN(Cc1ccncc1)C2,-10.22
CCNC(=O)C1(Cc2cc(-c3ccccc3)no2)CCCN(C(C)=O)C1 (centres undefined),-25.98
CN(CC1CC1)C(=O)Cc1csc(-c2ncccn2)n1,0.6449
CC(=O)NC1CCCN(C(=O)CNc2cccc(C)c2Cl)C1 (centres undefined),-15.45
O=C(O)C(F)(F)F.O=C(O)C(F)(F)F.[H][C@@]12C[C@H](C(=O)NCC(C)C)[C@@]([H])(CN(Cc3cccnc3)C1)O2,-8.002
CC(=O)NC1CCN(c2ncnc3c2c(C)nn3C)C1 (centres undefined),-4.347
[H][C@]12CC[C@]([H])(CN(C(=O)c3cccnc3)C1)N(Cc1cc(F)ccc1F)C2,-11.64
COc1ccc(NC(=O)c2nc(C)sc2C(C)C)cn1,7.09
O=C(O)C(F)(F)F.O=C(O)C(F)(F)F.[H][C@]12C[C@@H](CN3CCCC3)N(C)[C@@]1([H])CCN(C(=O)c1occc1C)C2,-1.779
CCN(CC)C(=O)[C@@H]1C[C@H](n2cc(-c3cccc(OC)c3)nn2)CN1,-7.611
COc1cc2c(cc1CNC(Cc1cccs1)c1nccs1)OCO2.Cl (centres undefined),30.43 & 42.41
CNc1nc(C)c(C(=O)N2CCCCC2CCc2ccc(O)cc2)s1 (centres undefined),-32.49
COc1ccc2nc(NC(=O)c3c(C(=O)O)cnn3C)sc2c1,-3.439
CNC(=O)[C@@H](c1ccccc1F)N1CCC[C@H]1C(=O)NC1CC1.Cl,5.19
Cc1nc(C)c(C(=O)Nc2cccc(CN3CCC(CO)CC3)c2)o1,3.583
Cc1ccc(CN2CCc3ncnc(-c4cccnc4)c3CC2)o1.O=C(O)C(F)(F)F.O=C(O)C(F)(F)F,-6.355
CCCc1cc(C(=O)NC(COC)c2ccnn2C)no1 (centres undefined),-6
OC1(CNCCc2csc(-c3ncccn3)n2)CCNC1 (centres undefined),-19.46
O=C(CNC(=O)N1CCN(c2cccc(Cl)c2)CC1)Nc1ccccn1,-2.456
CC(C)Nc1cccc(CC2CCN(C)C2)n1.O=CO (centres undefined),-3.241
CN(C)[C@@H]1CN(Cc2cccnc2)C[C@H]1c1cn(C)c2ccccc12.Cl,0.0431 & 2.911
COC1CCCN(C(=O)NCC(F)F)C1 (centres undefined),6.461
CNCc1n[nH]c(=O)n1-c1ccccc1Oc1ccccc1,-18.37
COCC1c2nnn(CC3CC3)c2CCN1C(=O)CS(C)(=O)=O (centres undefined),9.75 & -1.167
COc1ccccc1N1CCN(Cc2ncc(C)c(OC)c2C)CC1=O,-19.53
Cn1cnc(S(=O)(=O)NCCN2CCCCCC2)c1Cl,-2.509
O=C(c1sccc1Br)N(Cc1cccnc1)C1CC1,-6.209
CCN(CC)C(=O)c1ccc(Cl)c(NC(=O)c2csnn2)c1,9.684
NC(=O)CCNCc1c(Cl)cccc1N1CCCC1,14.99
Cc1csc(C2CCCCN2C(=O)c2cnn3ccc(C)nc23)n1 (centres undefined),14.42
COCCN1CCN(Cc2cccc(C(=O)N(C)C)c2)CC1C (centres undefined),-32.07

3 of the entries, repeated:

COc1ccccc1N1CCN(Cc2ncc(C)c(OC)c2C)CC1=O read -19.53%.
O=C(c1sccc1Br)N(Cc1cccnc1)C1CC1 read -6.209%.
[H][C@]12CC[C@]([H])(CN(C(=O)c3cccnc3)C1)N(Cc1cc(F)ccc1F)C2 read -11.64%.